Results are given in words; binding and its absence hold for the method and conditions named. Binding seen in cells or lysates may run through a third protein. Some binding calls cover weakened binding; strength is not graded here. Where a sequence is shown, tags or fusion partners need not be part of it.

This passage reports binding results from publication PMC6680050.

The test concerns the target T1, His-ULK1-FL (full length) (UniProt O75385).
T1 sequence: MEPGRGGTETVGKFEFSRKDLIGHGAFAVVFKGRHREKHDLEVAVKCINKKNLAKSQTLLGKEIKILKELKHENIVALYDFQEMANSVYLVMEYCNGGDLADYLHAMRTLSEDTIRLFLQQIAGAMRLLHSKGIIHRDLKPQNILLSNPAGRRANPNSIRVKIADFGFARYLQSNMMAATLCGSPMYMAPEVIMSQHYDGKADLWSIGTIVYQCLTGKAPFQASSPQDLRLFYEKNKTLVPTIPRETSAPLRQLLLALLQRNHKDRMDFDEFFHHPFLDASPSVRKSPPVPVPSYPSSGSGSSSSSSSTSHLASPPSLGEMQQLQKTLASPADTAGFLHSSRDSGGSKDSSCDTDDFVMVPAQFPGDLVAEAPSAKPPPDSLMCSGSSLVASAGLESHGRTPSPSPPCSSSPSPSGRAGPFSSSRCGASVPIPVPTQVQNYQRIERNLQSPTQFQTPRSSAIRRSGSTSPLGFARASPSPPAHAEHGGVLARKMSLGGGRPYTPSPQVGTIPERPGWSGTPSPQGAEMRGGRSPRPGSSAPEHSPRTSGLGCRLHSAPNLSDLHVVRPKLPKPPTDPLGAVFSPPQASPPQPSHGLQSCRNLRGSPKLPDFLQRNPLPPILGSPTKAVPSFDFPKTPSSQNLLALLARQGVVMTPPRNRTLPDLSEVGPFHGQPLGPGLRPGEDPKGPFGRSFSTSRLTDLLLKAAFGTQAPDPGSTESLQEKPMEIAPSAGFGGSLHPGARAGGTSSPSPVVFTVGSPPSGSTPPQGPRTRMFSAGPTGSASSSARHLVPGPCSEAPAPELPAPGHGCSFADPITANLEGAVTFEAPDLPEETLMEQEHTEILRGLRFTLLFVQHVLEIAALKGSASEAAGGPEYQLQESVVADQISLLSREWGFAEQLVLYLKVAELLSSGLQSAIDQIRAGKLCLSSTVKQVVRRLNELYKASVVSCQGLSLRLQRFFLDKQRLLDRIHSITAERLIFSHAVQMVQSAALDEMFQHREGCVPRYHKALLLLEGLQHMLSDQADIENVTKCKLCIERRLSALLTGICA
Briefly: pull-down; His-ULK1-FL/KD/SPR/CTD on Ni-NTA beads mixed with H4 cell lysate; resin from empty-vector cells as negative control; TOPK detected by western blot; only the target purified.

B1: endogenous TOPK of H4 cells (enzyme, UniProt Q96KB5 1-322)
chain: MEGISNFKTPSKLSEKKKSVLCSTPTINIPASPFMQKLGFGTGVNVYLMKRSPRGLSHSPWAVKKINPICNDHYRSVYQKRLMDEAKILKSLHHPNIVGYRAFTEANDGSLCLAMEYGGEKSLNDLIEERYKASQDPFPAAIILKVALNMARGLKYLHQEKKLLHGDIKSSNVVIKGDFETIKICDVGVSLPLDENMTVTDPEACYIGTEPWKPKEAVEENGVITDKADIFAFGLTLWEMMTLSIPHINLSNDDDDEDKTFDESDFDDEAYYAALGTRPPINMEELDESYQKVIELFSVCTNEDPKDRPSAAHIVEALETDV
In the case of B1, the binding entry is “binds”.
